Patent publication EP2573192A1, “METHOD AND KIT FOR DIAGNOSING AIM-RELATED ILLNESS” (Miyazaki, Toru, priority 2010, dated 2011)
These are yes or no findings as the source states them, for the method shown. In cells and extracts the contact can be indirect. Some results given as binding are weak or reduced against the parent protein; the word gives no strength. Tags and fused reporters may be left off the sequences shown.

Key:
[1] = target: full-length FAS labeled with FLAG-tag (UniProt P19096); assay: co-immunoprecipitation with anti-Flag or anti-HA antibody; both proteins co-expressed in HEK 293T cells
[2] = target: T1, dehydrase (DH) domain of FAS labeled at the N-terminal with Flag sequence (UniProt P19096); assay: co-immunoprecipitation with anti-Flag or anti-HA antibody; Flag-tagged domain expressed in HEK293T cells that stably express AIM-HA
T1 sequence (looked up): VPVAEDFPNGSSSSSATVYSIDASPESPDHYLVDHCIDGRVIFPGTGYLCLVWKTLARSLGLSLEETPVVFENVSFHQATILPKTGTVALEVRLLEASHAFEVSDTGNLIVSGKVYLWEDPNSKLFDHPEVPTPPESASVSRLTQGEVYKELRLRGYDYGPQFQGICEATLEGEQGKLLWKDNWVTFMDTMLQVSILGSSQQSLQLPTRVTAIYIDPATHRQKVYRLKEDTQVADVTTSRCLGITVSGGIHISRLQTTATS

[3] = target: T2, thioesterase (TE) domain of FAS labeled at the N-terminal with Flag sequence (UniProt P19096); assay: as above
T2 sequence (looked up): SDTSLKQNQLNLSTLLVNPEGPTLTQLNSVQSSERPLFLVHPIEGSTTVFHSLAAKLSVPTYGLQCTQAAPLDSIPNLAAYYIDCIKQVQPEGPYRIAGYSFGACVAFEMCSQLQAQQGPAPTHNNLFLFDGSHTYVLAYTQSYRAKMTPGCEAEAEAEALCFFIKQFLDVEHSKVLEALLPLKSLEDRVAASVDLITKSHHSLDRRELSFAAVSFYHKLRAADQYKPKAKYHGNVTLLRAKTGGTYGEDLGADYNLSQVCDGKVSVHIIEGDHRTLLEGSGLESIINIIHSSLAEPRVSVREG

[4] = target: endogenous fatty acid synthase (FAS) of mouse adipose tissue / 3T3-L1 adipocytes (mouse) (UniProt P19096); assay: co-immunoprecipitation with anti-HA antibody from adipose tissue of AIM-/- mice injected with rAIM-HA; FAS detected by Western blotting

- binding [1]: binds
- binding [2]: binds
- binding [3]: binds
- binding [4]: binds
B1: recombinant AIM protein (rAIM) of mouse labeled with HA-tag (ligand, not shown: small tags and cut ends)
chain: ESPTKVQLVGGAHRCEGRVEVEHNGQWGTVCDDGWDRRDVAVVCRELNCGAVIQTPRGASYQPPASEQRVLIQGVDCNGTEDTLAQCELNYYVFDCSHEEDAGAQCENPDSDLLFIPEDVRLVDGPGHCQGRVEVLHQSQWSTVCKAGWNLQVSKVVCRQLGCGRALLTYGSCNKNTQGKGPIWMGKMSCSGQEANLRSCLLSRLENNCTHGEDTWMECEDPFELKLVGGDTPCSGRLEVLHKGSWGSVCDDNWGEKEDQVVCKQLGCGKSLHPSPKTRKIYGPGAGRIWLDDVNCSGKEQSLEFCRHRLWGYHDCTHKEDVEVICTDFDV
